PubChem BioAssay AID2685 (National Center for Advancing Translational Sciences (NCATS), 2010)
Some of the results follow. These are further read-outs of the screen, such as a control signal, another cell line or another target. No call is given for them. Most of these compounds were active or inconclusive in the main read-out, so they are no random draw. Words in brackets tell the shape of the fitted curve; partial curves, single points and poor fits give uncertain potencies.

Assay: qHTS Assay for Lipid Storage Modulators in Drosophila S3 Cells;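 as to cell number change: cells counted by Cell Tracker Red CMTPX staining in the red channel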
Conditions: BODIPY lipid droplet fluorescence, 18-24 h; for cell number change: measured here: cell count max response, cells fed with added oleic acid
Summary of the method: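 Laser-scanning cytometry quantifies lipid droplet accumulation (500–530 nm total intensity; droplet/cell object ratio) in oleic acid-fed (400 uM added) Drosophila S3 cells treated with a concentration series. 20 uM Triacsin C defined 100% inhibition.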

[1] = measured here: lipid fluorescence (Fed channel) AC50, cells fed with added oleic acid
[2] = measured here: cell number channel AC50, cells fed with added oleic acid

Row | SMILES | cell number change [%] | AC50 [1] | AC50 [2]
1 | Cn1c(Cn2c(=O)sc3ccccc32)nnc1SCc1cccnc1 | 13.4 | 0.517 µM [falling, single point] | 
2 | COC(=O)c1c(NC(=O)COC(=O)[C@@H](NS(=O)(=O)c2cccc(Cl)c2)C(C)C)sc2c1CCC2 | 2.82 |  | 
3 | Cc1nnsc1C(=O)N/N=C/c1ccc(OC(F)(F)F)cc1 | 20.2 | 4.61 µM [falling, partial curve, poor fit] | 3.26 µM [falling, partial curve]
4 | COc1ccc2nc(C)cc(SCC(=O)N/N=C/c3c(OC)ccc4ccccc34)c2c1 | -7.95 |  | 6.51 µM [falling, single point]
5 | O=C1c2ccccc2C(=O)N1CC(O)Cn1nnc2ccccc21 (stereo not drawn) | 41.7 | 14.6 µM [rising, partial curve] | 9.2 µM [rising, partial curve, poor fit]
6 | Cc1cccc(-n2nnc3cnn(C)c3c2=O)c1 | 56.2 | 6.51 µM [rising, single point] | 16.4 µM [rising, single point]
7 | Cc1cccc(COc2ccc(/C=N/NC(=O)c3nnn(-c4nonc4N)c3COc3ccc(F)cc3)cc2)c1 | 13.2 | 0.103 µM [rising, full curve, poor fit] | 
8 | CCOc1ccc(NC(=O)CN(C)C(=O)Cc2ccsc2)cc1OCC | 0.273 | 6.51 µM [rising, single point] | 
9 | Cc1nn(-c2ccccc2)c2c1C(c1ccc(O)c(O)c1)N1C(=N2)C(Nc2ccccc2)=Nc2ccccc21 (stereo not drawn) | -65.1 | 25.9 µM [falling, partial curve] | 25.9 µM [falling, partial curve]
10 | Cc1ccc(O)c(-c2cc(-c3ccccc3F)[nH]n2)c1 | -27.5 | 4.11 µM [falling, partial curve] | 
11 | Cc1cccc(OCCCC(=O)Nc2ccc(S(=O)(=O)Nc3nccs3)cc2)c1C | -24.3 |  | 0.82 µM [rising, full curve]
12 | Cc1nc2ccccc2cc1OCc1ccc(Cl)cc1 | -15.7 | 23.1 µM [falling, partial curve] | 
13 | OCCN(Cc1ccccc1)CC1CC2C=CC1C2 (stereo not drawn) |  | 0.092 µM [falling, full curve, poor fit] | 
14 | O=[N+]([O-])c1ccc(CSC2=NCCS2)cc1 | -18.6 | 9.2 µM [falling, single point] | 
15 | CCN(Cc1ccccc1)C(=O)c1ccc(NC(=O)c2ccc(OC)cc2)cc1 | -50.5 | 29.1 µM [falling, single point] | 10.3 µM [falling, partial curve, poor fit]
16 | COC(=O)C(C)NC(=O)COc1ccc2ccccc2c1 (stereo not drawn) | -26.5 | 8.2 µM [falling, partial curve] | 
17 | O=C(N/N=C/c1ccncc1)c1cccc([N+](=O)[O-])c1 | 17.4 | 4.11 µM [rising, full curve, poor fit] | 
18 | CC(=O)Nc1cccc(NC(=O)c2ccccc2OCc2ccccc2)c1 |  | 0.13 µM [falling, full curve] | 
19 | COc1cc2c(cc1NC(=S)NC(=O)/C=C/c1ccco1)oc1ccccc12 | -49.9 |  | 4.61 µM [falling, full curve]
20 | COC(=O)/C=C1/S/C(=N/NC(=O)c2ccccc2OC)NC1=O | -8.73 | 5.8 µM [rising, full curve] | 
21 | Cc1cc(CN(C)C(=O)c2ccc(OC3CCN(Cc4ccccn4)CC3)cc2)on1 | -1.65 | 0.116 µM [falling, single point] | 
22 | CC(=O)Oc1ccc(N2C(=O)C3C4C=CC(O4)C3C2=O)cc1 (stereo not drawn) | -35.3 | 29.1 µM [falling, single point] | 29.1 µM [falling, single point]
23 | COc1cc(/C=N/NS(=O)(=O)c2ccc(Br)cc2)ccc1O |  | 14.6 µM [rising, partial curve] | 
24 | COCCNC(=O)c1csc(Nc2cccc3ccccc23)n1 | -22 | 18.4 µM [falling, single point] | 
25 | O=C(Nc1ccncc1)c1cc(-c2ccccn2)nc2ccc(Br)cc12 | 161 |  | 
26 | COc1cccc(C(=O)Cn2c(Br)nc3c2c(=O)n(C)c(=O)n3C)c1 | 32.1 | 20.6 µM [rising, single point] | 29.1 µM [rising, single point]
27 | COCC1CCN(C(=O)c2cc(COc3ccc(C)c(C)c3)on2)C1 (stereo not drawn) | 11.3 | 2.31 µM [rising, partial curve, poor fit] | 
28 | Clc1ccccc1C1=Nn2c(nnc2-c2ccncc2)SC1 | -18.7 | 0.092 µM [falling, full curve, poor fit] | 

Reformatted with tabs: entries from further up.
Row	SMILES	cell number change [%]	AC50 [1]	AC50 [2]
3	Cc1nnsc1C(=O)N/N=C/c1ccc(OC(F)(F)F)cc1	20.2	4.61 µM [falling, partial curve, poor fit]	3.26 µM [falling, partial curve]
10	Cc1ccc(O)c(-c2cc(-c3ccccc3F)[nH]n2)c1	-27.5	4.11 µM [falling, partial curve]	
14	O=[N+]([O-])c1ccc(CSC2=NCCS2)cc1	-18.6	9.2 µM [falling, single point]	
18	CC(=O)Nc1cccc(NC(=O)c2ccccc2OCc2ccccc2)c1		0.13 µM [falling, full curve]	
26	COc1cccc(C(=O)Cn2c(Br)nc3c2c(=O)n(C)c(=O)n3C)c1	32.1	20.6 µM [rising, single point]	29.1 µM [rising, single point]
